Measured values: the supplement of paper PMC6411743
± gives the standard deviation of the averaged measurements. The list shows a part of the results, in another mix than the full data. Small differences around the control level are noise.

Amino acid sequences for entries named in this document (tags omitted). A change or cut given only in a name is not applied to a line headed by its entry.
UniProt O75319: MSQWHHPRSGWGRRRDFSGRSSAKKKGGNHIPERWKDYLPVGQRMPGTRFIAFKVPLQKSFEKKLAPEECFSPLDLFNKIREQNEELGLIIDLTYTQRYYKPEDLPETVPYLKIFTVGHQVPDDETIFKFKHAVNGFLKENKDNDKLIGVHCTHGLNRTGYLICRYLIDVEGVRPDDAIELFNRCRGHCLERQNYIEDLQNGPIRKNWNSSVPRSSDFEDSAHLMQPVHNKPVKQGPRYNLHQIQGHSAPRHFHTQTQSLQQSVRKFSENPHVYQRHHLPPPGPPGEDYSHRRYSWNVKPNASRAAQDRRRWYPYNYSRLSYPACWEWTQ
UniProt O75369, whole entry: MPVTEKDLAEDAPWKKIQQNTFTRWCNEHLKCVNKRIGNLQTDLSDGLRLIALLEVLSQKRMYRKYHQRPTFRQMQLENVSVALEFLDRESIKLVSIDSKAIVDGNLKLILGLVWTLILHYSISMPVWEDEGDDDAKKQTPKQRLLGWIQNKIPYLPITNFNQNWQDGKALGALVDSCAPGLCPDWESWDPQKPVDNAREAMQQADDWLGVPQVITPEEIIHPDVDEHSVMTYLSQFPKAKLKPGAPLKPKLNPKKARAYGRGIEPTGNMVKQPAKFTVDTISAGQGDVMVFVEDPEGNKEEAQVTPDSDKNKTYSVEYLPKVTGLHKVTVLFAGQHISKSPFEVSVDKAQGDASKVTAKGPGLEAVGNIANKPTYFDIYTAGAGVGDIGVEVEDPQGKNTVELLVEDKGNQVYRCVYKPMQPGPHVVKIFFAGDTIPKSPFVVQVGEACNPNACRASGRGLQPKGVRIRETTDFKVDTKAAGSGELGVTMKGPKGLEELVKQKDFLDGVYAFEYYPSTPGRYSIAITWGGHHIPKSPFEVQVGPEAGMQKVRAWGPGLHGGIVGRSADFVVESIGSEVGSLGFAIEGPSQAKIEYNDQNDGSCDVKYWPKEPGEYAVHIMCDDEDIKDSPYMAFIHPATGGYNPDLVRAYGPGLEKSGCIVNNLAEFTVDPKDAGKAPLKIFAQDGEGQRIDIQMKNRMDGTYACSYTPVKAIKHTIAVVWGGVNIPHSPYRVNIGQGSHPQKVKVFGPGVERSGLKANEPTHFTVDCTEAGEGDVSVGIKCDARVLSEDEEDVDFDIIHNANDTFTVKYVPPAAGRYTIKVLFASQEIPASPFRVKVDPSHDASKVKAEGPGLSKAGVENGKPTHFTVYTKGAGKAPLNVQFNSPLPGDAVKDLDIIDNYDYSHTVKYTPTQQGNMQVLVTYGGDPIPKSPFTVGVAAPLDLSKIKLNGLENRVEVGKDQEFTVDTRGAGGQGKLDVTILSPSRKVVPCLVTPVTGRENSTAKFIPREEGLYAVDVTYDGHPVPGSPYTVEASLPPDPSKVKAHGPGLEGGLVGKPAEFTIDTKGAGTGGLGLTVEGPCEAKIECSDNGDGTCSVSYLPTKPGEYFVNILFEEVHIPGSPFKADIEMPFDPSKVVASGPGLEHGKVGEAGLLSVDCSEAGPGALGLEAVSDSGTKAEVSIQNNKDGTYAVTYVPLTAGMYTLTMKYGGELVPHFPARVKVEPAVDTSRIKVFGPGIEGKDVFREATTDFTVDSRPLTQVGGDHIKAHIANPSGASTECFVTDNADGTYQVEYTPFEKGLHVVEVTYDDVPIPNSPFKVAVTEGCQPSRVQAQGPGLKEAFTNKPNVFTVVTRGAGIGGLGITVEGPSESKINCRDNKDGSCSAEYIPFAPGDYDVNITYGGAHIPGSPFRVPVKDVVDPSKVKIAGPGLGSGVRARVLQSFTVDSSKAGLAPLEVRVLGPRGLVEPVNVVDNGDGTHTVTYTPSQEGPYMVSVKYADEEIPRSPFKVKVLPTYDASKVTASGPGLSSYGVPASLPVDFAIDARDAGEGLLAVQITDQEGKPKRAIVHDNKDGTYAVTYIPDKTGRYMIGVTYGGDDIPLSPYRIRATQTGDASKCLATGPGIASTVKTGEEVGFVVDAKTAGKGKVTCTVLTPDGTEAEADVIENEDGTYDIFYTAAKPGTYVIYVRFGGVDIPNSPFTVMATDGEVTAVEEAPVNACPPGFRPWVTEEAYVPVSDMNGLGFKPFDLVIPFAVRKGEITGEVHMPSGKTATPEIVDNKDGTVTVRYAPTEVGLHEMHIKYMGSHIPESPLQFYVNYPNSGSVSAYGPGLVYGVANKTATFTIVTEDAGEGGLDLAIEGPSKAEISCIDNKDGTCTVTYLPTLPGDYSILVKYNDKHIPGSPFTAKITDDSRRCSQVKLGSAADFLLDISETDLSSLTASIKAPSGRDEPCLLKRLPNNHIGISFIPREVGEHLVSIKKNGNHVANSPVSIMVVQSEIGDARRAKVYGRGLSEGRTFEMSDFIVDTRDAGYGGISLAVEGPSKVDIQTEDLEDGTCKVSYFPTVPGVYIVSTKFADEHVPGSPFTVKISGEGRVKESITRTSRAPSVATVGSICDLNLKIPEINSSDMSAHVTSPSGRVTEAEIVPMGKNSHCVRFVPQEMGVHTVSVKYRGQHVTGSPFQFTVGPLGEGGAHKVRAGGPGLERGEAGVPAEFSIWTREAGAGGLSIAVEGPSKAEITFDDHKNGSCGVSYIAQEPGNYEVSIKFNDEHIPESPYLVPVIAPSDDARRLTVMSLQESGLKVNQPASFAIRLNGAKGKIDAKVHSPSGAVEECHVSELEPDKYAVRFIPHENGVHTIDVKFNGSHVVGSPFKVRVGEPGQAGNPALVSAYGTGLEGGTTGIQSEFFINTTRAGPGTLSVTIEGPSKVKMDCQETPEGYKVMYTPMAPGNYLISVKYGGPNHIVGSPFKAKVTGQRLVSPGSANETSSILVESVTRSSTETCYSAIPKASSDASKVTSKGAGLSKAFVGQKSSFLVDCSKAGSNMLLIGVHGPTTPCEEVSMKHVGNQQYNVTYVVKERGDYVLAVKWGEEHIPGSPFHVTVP
UniProt O75191: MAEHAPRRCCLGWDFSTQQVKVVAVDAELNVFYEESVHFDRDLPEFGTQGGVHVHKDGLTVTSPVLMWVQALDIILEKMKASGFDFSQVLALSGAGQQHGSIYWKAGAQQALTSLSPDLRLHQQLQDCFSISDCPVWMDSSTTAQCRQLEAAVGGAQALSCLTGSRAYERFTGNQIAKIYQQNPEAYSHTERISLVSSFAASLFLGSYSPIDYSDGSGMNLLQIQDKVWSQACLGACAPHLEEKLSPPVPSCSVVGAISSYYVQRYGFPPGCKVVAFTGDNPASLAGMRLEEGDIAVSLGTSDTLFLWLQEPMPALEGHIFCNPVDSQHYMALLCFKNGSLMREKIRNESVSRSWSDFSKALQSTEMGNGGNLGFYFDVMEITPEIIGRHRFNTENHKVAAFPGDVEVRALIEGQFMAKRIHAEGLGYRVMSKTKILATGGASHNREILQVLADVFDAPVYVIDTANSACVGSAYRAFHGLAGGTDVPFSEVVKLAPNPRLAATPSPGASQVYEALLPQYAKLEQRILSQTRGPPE
UniProt O60701: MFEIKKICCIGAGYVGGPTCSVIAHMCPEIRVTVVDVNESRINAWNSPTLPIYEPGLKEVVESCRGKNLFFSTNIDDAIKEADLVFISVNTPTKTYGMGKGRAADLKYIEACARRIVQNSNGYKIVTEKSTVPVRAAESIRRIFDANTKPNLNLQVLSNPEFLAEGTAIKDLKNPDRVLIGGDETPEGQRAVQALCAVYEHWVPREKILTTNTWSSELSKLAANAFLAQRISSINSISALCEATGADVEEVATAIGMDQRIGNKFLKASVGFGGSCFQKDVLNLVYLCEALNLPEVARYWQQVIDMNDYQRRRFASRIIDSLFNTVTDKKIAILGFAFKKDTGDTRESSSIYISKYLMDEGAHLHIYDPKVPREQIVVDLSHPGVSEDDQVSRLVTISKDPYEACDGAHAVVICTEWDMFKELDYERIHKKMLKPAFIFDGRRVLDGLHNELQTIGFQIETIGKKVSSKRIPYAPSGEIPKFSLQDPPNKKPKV
UniProt O75177, whole entry: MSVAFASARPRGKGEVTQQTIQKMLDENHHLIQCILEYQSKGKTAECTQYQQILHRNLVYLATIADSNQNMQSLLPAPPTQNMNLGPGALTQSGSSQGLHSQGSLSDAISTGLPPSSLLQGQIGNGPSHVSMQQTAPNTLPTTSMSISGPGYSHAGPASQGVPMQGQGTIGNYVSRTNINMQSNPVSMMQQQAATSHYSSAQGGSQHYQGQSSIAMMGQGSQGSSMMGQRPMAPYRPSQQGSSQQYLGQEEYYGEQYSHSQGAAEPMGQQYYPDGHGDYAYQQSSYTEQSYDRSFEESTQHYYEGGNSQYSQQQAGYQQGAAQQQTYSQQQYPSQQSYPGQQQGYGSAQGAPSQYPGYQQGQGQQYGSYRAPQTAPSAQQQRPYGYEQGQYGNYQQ
UniProt O75934: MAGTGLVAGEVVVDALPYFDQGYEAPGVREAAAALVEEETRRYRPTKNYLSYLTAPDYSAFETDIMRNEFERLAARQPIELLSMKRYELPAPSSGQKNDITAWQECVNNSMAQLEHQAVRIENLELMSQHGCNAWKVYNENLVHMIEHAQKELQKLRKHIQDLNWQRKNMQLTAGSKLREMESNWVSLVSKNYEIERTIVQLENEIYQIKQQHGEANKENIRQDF
UniProt O95365: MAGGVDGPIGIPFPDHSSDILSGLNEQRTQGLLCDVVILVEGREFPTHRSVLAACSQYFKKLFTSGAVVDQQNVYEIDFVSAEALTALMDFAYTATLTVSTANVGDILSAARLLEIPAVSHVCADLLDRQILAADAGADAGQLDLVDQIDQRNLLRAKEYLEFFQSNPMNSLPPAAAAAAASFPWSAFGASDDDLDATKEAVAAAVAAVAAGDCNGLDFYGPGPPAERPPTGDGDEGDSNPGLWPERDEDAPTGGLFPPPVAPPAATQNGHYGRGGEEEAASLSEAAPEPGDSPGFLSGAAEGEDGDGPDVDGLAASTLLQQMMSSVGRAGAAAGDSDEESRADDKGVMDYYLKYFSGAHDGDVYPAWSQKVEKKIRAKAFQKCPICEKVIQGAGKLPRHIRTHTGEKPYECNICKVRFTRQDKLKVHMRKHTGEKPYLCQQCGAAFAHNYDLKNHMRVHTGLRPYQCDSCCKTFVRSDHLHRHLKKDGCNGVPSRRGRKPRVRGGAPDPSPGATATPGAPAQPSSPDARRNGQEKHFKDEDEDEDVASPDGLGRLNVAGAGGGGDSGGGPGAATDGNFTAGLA
UniProt O75844: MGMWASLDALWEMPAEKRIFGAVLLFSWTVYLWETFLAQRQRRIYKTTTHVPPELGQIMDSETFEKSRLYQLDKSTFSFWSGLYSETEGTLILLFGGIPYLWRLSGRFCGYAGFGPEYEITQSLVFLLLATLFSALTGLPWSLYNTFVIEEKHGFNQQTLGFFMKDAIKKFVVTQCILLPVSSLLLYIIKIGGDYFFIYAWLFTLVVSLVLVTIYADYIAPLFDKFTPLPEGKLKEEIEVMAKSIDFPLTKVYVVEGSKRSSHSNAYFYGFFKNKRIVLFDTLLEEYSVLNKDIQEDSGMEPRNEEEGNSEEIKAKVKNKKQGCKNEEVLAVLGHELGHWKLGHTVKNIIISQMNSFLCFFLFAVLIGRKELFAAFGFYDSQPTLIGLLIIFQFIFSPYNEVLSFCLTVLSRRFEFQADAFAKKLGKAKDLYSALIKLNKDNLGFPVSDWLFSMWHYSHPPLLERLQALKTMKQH
UniProt O75113: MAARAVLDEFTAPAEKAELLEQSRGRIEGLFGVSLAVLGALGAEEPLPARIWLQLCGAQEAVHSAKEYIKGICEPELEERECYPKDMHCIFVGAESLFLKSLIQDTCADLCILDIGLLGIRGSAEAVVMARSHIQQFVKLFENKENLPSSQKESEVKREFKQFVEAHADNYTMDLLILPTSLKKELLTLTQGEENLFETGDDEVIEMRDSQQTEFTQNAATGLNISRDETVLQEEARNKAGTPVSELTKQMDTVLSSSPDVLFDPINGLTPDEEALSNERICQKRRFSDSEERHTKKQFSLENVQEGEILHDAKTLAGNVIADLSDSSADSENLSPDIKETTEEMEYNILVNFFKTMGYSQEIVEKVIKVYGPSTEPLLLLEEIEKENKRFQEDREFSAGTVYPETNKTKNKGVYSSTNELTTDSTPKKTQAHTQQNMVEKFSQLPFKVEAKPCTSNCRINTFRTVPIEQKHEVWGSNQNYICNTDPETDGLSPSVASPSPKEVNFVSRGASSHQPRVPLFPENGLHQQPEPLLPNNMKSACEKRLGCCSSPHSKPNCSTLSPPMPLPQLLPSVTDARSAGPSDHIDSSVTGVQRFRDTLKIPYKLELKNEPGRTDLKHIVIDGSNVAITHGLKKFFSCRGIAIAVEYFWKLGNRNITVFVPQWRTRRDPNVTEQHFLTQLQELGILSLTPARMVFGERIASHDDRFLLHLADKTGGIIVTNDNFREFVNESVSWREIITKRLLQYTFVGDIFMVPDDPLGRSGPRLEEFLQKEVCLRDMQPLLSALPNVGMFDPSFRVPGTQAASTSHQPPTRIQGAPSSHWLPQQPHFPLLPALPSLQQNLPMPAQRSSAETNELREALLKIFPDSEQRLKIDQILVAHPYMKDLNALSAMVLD

compound: Nc1ncnc2c1ncn2[C@@H]1O[C@H](COP(=O)(O)OP(=O)(O)NP(=O)(O)O)[C@@H](O)[C@H]1O [adenylyl imidodiphosphate]; assay: NP40-soluble protein abundance relative to vehicle (solubility fold change) (ratio); higher = more soluble protein in presence of AMP-PNP; settings: concentration: 0.5mM
Method in brief: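 Data come from three independent experiments in which Dounce-homogenised Jurkat crude lysate was treated at eight concentrations from 0.1 to 10 mM. Treatment ran 10 min at room temperature and then 3 min at 37 °C, after which 0.8% NP40 and benzonase were added for 60 min at 4 °C before ultracentrifugation. The supernatant underwent TMT labelling and LC-MS/MS, and vsn-normalised intensities were expressed as fold change against the detergent-processed vehicle in each replicate.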

**Q.** Which NP40-soluble protein abundance does the source give for ACSL3 (UniProt O95573) here?
**A.** 1.01 ± 0.022

**Q.** DUSP11 (UniProt O75319) was tested. Which NP40-soluble protein abundance did it give?
**A.** 1.03 ± 0.037

**Q.** “UniProt O75369-8|O75369-9|O75369 and related entries” was tested. Which NP40-soluble protein abundance did it give?
**A.** 0.995 ± 0.035

**Q.** How did the NP40-soluble protein abundance turn out when XYLB (UniProt O75191) was run?
**A.** 0.959 ± 0.013

**Q.** Which NP40-soluble protein abundance does the source give for EXTL3 (UniProt O43909) here?
**A.** 1.01 ± 0.016

**Q.** Which NP40-soluble protein abundance does the source give for UniProt O94964 and related entries here?
**A.** 0.986 ± 0.026

**Q.** For UGDH (UniProt O60701), which NP40-soluble protein abundance is on record?
**A.** 0.991 ± 0.062

**Q.** For SS18L1 (UniProt O75177), which NP40-soluble protein abundance is on record?
**A.** 0.986 ± 0.035

**Q.** Which NP40-soluble protein abundance does the source give for UniProt O75934 here?
**A.** 1.03 ± 0.07

**Q.** For SH3BP5 (UniProt O60239), which NP40-soluble protein abundance is on record?
**A.** 0.9934 ± 0.0081

**Q.** Which NP40-soluble protein abundance does the source give for UniProt O75808 and related entries here?
**A.** 0.994 ± 0.025

**Q.** Which NP40-soluble protein abundance does the source give for UTP20 (UniProt O75691) here?
**A.** 1.01 ± 0.022

**Q.** For ZBTB7A (UniProt O95365), which NP40-soluble protein abundance is on record?
**A.** 0.978 ± 0.051

**Q.** How did the NP40-soluble protein abundance turn out when ZMPSTE24 (UniProt O75844) was run?
**A.** 0.983 ± 0.14

**Q.** How did the NP40-soluble protein abundance turn out when KBTBD11 (UniProt O94819) was run?
**A.** 0.976 ± 0.013

**Q.** For UniProt O60341, which NP40-soluble protein abundance is on record?
**A.** 0.989 ± 0.03

**Q.** DNAJA2 (UniProt O60884) was tested. Which NP40-soluble protein abundance did it give?
**A.** 0.976 ± 0.029

**Q.** How did the NP40-soluble protein abundance turn out when N4BP1 (UniProt O75113) was run?
**A.** 0.981 ± 0.012

**Q.** Which NP40-soluble protein abundance does the source give for UniProt O60506 and related entries here?
**A.** 0.985 ± 0.022
